No constants are given. Whether binding was seen depends on the method and setting. Binding seen in cells or lysates may run through a third protein. Some entries that bind do so weakly or less than the wild type. Where a sequence is shown, tags or fusion partners need not be part of it.
Biological target: T1, Rad21-FLAG (cohesin kleisin subunit Rad21) (S. pombe) (UniProt P30776)
T1 sequence: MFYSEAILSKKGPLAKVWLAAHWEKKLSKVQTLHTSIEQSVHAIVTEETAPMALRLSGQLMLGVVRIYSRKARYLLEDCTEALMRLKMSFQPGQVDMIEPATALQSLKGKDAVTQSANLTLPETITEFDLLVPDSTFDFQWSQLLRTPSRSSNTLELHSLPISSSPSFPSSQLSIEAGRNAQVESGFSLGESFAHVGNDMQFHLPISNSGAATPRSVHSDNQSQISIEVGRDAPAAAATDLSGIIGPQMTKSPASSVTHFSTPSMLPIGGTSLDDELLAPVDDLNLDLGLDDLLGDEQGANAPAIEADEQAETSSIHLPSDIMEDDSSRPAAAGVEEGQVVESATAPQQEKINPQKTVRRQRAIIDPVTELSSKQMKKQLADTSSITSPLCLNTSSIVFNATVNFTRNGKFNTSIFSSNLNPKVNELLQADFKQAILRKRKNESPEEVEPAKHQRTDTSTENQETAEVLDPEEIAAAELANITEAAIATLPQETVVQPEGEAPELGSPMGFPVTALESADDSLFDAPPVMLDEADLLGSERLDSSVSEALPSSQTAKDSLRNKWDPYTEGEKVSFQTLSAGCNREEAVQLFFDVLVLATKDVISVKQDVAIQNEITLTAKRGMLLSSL
Assay: co-IP; Rad21-FLAG IP from cdc10-129-arrested cells or cycling cells, western blot with anti-Psm1 and anti-Psm1-S1022p; also in mip1-R401G, mip1-Y533A, pef1Δ, sck1Δ and sck2Δ cells and with rapamycin

B1: Psm1 (Smc1 subunit of fission yeast cohesin) (protein, UniProt O94383 1-1228)
chain: MGRLLRLEVENFKSYRGHQIIGPFEDFTSIIGPNGAGKSNLMDAISFVLGVKSSHLRSTNVKELIYRGKILQRDNTDFTDSSNPTTAYVKLMYELDNGEQREYKRAITPSGATEYKIDEEIVTFSEYCGSLQKENILVRARNFLVFQGDVETIASQSPLELSKLVEQISGSLEYKSEYDKSKDEQDKAVNLSAHSFNKKRGINAELRQYQEQKTEAERYQSQKEKRDSAQLVYLLWKLFHLEKSISSNMAEVTRLKADSIQLIERRDENTKEIEKLKEKEGSIRRNLLAFDRKVRKQEKLIASKRPELISIAEKALESKSNLRKIQRKAAEIEKDYSDQASTLQVLENQLTSLSAAEKEFLKDMQEKEQLKGLRLLPEDKEEYEGLRSEADKLNSNLLFKLQTLNRNIKVTSQSKDSLTSIVGDLESKIKSLHESVSSLDTERADLLAKINEKIESLELEKHDQQKKRLTYSELFHKTQELNEELQSCLQKILEASADRNESKQDAKKREALYALKRIYPEVKGRIIDLCTPTQKKYESAIAAALGKNFDAIVVETQAVAKECIDYIKEQRIGIMTFFPMDTIAASPVNQKFRGTHKGARLAIDVLNFESEYERVMISAVGNTLICDSMTVARDLSYNKRLNAKTVTLEGTVIHKTGLITGGSSNNRSAKHWDDHDFDLLTQTKDRLMHQIGEIEYQKSSCVITESDTVKLHSLESEISLLKDKYTVVSRSVEDKKKEIGHYESLIKEKQPHLSELEMELRNFVKSRDELQIQVEKVEEKIFSGFCKRIGISDIHTYDEIHRTFTQSFTQKQLEFTKQKSLLENRISFEKQRVSDTRLRLERMHKFIEKDQESIDNYEQNREALESEVATAEAELELLKEDFASENSKTEKILLAASEKKLVGKRLVSELTKLSGNITLLESEIDRYVSEWHAILRKCKLEDIDVPLREGSLTSIPIDDVSNSGDITMGEEPSEPVINFEKFGVEVDYDELDEELRNDGSESMASVLQEKLREYSEELDQMSPNLRAIERLETVETRLAKLDEEFAAARKAAKNAKERFNAVKQKRLQKFQAAFSHISEQIDPIYKELTKSPAFPLGGTAYLTLDDLDEPYLGGIKFHAMPPMKRFRDMDQLSGGEKTMAALALLFAIHSYQPSPFFVLDEIDAALDQTNVTKIANYIRQHASSGFQFVVISLKNQLFSKSEALVGIYRDQQENSSRTLSINLEGYVE
binding: binds

— PMC13225845
